These are yes or no findings as the source states them, for the method shown. Binding seen in cells or lysates may run through a third protein. Some entries that bind do so weakly or less than the wild type.
Target: Irgm2-GFP (mouse)
Assay: co-IP

The chains behind the UniProt entries cited, without tags or fusion partners.
UniProt P60521: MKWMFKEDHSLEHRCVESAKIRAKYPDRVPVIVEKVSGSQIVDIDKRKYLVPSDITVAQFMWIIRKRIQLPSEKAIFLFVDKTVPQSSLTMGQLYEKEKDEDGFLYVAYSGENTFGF

**Q.** “gamma-aminobutyric acid (GABA)-A-receptor-associated protein (GabarapL2 or Gate-16) (from UniProt P60521 1-117)” was tested. Which binding did it give?
**A.** binds

— doi:10.1101/2020.03.06.980433
